# Results as given in the supplement of paper PMC10849652.
# Sequences of proteins named here, by UniProt entry; tags and fusion partners are left off. A change or cut given only in a name is not applied to a line headed by its entry.
# UniProt P78316: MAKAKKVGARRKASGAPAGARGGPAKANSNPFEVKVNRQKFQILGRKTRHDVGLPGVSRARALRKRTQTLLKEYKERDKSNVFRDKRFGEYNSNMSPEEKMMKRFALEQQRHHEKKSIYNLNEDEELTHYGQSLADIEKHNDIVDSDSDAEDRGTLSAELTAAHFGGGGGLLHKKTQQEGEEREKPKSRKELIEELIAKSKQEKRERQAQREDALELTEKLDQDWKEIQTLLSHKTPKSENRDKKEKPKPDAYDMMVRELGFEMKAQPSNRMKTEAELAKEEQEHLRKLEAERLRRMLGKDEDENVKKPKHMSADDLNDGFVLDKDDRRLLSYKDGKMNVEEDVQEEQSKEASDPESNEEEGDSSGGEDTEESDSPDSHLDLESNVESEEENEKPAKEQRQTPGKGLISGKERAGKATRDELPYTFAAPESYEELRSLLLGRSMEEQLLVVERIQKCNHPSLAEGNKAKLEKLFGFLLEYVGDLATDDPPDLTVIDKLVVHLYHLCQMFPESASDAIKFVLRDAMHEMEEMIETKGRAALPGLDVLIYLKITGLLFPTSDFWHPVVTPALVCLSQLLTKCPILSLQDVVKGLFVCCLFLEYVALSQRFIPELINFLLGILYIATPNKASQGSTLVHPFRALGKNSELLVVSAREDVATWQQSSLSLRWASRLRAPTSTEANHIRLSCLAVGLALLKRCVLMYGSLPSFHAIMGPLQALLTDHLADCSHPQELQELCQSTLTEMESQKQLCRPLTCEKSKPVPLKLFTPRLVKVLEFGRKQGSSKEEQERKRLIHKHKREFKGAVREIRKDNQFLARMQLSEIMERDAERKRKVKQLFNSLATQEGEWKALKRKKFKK
# UniProt Q8IVI9: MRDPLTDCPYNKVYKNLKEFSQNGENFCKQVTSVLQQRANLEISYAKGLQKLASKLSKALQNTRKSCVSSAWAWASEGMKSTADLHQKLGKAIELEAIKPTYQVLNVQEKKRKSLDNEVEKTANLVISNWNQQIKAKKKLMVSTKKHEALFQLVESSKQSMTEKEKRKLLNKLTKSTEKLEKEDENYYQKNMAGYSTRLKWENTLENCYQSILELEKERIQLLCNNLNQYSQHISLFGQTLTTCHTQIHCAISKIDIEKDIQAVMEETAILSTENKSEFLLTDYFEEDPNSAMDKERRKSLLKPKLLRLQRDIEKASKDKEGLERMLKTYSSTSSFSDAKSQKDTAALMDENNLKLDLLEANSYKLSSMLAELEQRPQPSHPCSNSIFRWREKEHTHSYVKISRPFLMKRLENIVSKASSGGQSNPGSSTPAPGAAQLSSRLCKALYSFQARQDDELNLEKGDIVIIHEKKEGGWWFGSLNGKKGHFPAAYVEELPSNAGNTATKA
# UniProt Q14494: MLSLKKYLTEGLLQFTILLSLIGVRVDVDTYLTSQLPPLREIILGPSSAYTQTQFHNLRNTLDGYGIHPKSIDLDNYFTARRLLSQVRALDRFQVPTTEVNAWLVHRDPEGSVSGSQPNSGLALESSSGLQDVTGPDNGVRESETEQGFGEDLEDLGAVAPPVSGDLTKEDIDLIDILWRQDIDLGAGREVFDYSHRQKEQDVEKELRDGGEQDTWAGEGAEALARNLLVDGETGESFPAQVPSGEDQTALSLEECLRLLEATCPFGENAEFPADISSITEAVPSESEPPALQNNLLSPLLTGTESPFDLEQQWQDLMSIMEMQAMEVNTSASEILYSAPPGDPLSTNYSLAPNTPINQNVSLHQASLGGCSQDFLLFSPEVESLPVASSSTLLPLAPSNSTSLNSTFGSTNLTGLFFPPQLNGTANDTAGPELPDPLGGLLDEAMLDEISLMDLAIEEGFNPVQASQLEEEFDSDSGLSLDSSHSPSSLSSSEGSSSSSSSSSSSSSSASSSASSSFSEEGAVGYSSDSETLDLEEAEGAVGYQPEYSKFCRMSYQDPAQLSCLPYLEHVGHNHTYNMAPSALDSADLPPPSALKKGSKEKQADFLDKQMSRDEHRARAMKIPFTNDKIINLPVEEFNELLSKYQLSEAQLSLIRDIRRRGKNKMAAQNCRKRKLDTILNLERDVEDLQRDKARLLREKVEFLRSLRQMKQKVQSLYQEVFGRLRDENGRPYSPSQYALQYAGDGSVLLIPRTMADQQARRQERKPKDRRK
# UniProt Q9NYR9: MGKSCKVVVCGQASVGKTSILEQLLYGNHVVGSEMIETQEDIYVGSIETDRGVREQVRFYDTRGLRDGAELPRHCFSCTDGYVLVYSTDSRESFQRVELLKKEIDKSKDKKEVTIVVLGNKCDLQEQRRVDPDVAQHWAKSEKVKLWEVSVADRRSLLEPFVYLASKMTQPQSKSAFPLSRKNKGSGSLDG
# UniProt Q86UT6, whole entry, looked up: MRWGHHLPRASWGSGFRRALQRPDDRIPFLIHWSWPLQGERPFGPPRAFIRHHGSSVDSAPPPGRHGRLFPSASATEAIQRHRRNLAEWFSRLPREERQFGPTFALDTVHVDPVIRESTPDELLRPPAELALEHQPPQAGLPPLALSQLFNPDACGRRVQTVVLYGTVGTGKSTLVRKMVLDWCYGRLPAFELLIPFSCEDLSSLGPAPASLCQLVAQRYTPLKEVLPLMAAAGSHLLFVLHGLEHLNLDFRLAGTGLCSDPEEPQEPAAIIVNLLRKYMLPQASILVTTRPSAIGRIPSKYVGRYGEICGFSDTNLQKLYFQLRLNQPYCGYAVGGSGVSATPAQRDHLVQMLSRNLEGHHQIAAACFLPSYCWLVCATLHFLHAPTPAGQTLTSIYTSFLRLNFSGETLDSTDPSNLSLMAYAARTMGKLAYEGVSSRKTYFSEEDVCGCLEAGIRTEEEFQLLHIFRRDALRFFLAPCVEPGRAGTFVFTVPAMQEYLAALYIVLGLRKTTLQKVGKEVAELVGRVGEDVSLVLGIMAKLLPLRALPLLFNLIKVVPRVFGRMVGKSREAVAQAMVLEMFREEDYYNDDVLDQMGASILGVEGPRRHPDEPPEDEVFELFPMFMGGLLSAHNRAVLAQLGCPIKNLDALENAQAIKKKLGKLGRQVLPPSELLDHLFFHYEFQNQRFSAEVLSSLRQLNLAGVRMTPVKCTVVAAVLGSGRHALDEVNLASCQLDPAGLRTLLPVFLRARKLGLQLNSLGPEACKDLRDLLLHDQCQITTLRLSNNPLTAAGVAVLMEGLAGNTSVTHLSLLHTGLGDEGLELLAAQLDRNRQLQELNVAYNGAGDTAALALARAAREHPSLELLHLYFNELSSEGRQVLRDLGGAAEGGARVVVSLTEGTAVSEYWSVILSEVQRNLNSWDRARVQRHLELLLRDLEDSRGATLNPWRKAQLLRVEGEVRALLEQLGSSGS
# UniProt O75052: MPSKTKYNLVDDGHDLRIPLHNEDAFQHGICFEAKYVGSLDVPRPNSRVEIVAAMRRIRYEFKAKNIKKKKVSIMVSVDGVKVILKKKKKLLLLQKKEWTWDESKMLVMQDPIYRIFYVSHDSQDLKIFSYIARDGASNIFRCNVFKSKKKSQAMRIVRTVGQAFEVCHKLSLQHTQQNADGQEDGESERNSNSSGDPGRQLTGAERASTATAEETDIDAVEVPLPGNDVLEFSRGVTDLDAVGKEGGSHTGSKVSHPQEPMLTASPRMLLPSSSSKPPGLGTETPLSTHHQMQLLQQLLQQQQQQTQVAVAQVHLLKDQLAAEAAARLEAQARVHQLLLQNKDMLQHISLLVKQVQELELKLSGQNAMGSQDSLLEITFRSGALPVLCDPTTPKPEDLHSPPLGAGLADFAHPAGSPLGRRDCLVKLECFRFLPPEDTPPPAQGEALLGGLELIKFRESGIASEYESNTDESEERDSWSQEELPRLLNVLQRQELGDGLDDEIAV
# UniProt Q86YC3: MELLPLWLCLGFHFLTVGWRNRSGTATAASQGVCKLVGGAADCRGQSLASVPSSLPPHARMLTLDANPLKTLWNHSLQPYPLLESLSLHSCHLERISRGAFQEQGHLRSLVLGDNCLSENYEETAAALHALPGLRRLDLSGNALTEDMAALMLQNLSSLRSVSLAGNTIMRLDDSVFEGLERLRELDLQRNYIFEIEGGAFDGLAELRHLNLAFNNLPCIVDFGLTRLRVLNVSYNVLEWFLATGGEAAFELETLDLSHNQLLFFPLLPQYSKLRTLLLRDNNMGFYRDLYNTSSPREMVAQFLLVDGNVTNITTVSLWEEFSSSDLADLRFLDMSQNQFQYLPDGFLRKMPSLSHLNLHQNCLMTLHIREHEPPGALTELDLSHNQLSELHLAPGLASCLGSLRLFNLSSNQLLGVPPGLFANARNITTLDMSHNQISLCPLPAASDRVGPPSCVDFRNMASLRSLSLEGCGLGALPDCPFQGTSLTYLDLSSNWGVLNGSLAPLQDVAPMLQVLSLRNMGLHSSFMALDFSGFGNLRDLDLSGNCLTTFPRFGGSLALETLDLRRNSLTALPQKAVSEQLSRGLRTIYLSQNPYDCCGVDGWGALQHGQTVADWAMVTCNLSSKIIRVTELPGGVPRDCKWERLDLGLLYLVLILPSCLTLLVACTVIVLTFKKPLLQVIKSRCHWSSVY
# UniProt Q9NPE3: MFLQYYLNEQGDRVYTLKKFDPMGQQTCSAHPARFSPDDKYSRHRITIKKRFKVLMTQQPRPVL
# UniProt Q8WTT2: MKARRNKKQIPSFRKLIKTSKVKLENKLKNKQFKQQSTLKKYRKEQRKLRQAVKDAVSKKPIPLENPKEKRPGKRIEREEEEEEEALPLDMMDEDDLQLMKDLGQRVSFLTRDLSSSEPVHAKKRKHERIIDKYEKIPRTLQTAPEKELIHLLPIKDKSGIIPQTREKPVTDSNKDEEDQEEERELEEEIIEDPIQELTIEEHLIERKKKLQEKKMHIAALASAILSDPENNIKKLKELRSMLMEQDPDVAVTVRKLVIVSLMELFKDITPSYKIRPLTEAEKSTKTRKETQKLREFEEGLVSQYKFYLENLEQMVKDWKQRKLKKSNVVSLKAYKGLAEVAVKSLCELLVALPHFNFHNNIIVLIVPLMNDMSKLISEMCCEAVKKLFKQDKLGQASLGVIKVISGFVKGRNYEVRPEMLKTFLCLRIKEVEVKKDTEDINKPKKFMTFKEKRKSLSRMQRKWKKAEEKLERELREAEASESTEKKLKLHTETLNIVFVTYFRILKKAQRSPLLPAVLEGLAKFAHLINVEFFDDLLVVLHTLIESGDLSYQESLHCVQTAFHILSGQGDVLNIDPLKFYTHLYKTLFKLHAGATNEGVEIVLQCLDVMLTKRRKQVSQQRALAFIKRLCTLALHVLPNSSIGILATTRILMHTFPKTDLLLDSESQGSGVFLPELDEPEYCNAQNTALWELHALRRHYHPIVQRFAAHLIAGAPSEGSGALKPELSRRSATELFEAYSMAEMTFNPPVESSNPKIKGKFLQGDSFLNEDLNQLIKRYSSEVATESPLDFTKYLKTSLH
# UniProt P25963: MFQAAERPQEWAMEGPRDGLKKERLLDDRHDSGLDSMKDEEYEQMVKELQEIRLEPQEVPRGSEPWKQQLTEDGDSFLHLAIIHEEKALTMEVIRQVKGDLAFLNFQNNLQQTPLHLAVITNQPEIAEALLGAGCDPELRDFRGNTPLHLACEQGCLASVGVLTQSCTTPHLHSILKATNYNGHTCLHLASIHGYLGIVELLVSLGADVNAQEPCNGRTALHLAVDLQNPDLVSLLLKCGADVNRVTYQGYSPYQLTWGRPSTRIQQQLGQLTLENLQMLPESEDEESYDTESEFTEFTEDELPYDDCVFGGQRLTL
# UniProt Q8NEJ9: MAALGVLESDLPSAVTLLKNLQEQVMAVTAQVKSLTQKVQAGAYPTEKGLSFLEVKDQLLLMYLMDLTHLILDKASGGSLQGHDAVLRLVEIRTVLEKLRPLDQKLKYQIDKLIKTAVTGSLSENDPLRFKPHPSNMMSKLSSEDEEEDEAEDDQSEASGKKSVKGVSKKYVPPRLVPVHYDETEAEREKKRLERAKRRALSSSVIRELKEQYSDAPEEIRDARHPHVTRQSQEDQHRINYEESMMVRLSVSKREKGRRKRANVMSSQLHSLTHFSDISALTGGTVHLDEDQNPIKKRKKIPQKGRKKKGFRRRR
# UniProt Q8IXH7, whole entry, looked up: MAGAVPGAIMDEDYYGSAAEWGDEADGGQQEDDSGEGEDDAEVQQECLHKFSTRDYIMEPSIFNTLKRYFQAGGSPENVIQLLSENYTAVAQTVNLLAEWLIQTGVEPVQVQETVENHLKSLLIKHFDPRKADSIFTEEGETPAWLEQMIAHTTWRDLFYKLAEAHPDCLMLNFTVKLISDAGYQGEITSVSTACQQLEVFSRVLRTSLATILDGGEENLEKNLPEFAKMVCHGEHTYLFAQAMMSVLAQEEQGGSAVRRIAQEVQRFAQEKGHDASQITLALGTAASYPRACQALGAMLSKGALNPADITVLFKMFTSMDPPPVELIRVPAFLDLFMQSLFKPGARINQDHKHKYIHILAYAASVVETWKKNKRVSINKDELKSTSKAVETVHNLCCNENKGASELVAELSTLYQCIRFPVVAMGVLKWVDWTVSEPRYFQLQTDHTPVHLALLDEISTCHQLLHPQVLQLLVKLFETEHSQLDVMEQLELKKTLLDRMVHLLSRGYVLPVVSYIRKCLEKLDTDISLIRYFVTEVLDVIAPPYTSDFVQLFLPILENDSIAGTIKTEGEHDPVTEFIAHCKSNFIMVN
# The list shows a part of the results.
# What was measured:
# Assay in all cases: log2 fold change, soluble protein after heating vs DMSO (PISA); higher = thermal stabilisation; K562 cells, 10 uM, 30 min; active = over 0.2 and 3.5 SD of the protein, either way, in both replicates (recomputed)
# [1] = compound: CC[C@H](C)N1C=C(C2=C(C=C(C=C21)C3=CN=C(C=C3)N4CCNCC4)C(=O)NCC5=C(C=C(NC5=O)C)C)C
# Method in brief: (§1)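 Aliquots of K562 cells (2×10^6 cells/mL) treated with 10 μM compound for 30 min were heated for 3 min over 48°C-58°C. After pooling and extraction in PBS with 0.5% NP-40 at 4°C, soluble protein from a 21,000xg, 90 min spin was quantified by TMTpro 16plex LC-MS/MS with channel sums equalised. Thermal stability is expressed against control samples, from duplicates, as a log2 fold change.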
# epoxomicin = compound: CC[C@H](C)[C@@H](C(=O)N[C@@H]([C@@H](C)O)C(=O)N[C@@H](CC(C)C)C(=O)[C@]1(CO1)C)NC(=O)[C@H]([C@@H](C)CC)N(C)C(=O)C [epoxomicin]
# Method in brief: as §1
# [2] = compound: CCn1cc(-c2ccnc3[nH]c(-c4cccc(CN(C)C)c4)cc23)c(-c2ccc(NC(=O)N(C)C)cc2)n1
# Method in brief: as §1
# [3] = compound: CN(C)CC(=O)Nc1ccc2[nH]c(=O)c3ccccc3c2c1
# Method in brief: as §1
# [4] = compound: CN1C2=C(C3=C1C(=O)N(N=C3)CC4=CC(=CC=C4)N)SC(=C2)S(=O)C
# Method in brief: as §1
# [5] = compound: CN1CCC(CNc2ccc3ncc(-c4cccc(OC(F)(F)F)c4)n3n2)CC1
# Method in brief: as §1
# saracatinib = compound: CN1CCN(CCOc2cc(OC3CCOCC3)c3c(Nc4c(Cl)ccc5c4OCO5)ncnc3c2)CC1 [saracatinib]
# Method in brief: as §1
# sotrastaurin = compound: CN1CCN(c2nc(C3=C(c4c[nH]c5ccccc45)C(=O)NC3=O)c3ccccc3n2)CC1 [sotrastaurin]
# Method in brief: as §1
# alvocidib = compound: CN1CC[C@H](c2c(O)cc(O)c3c(=O)cc(-c4ccccc4Cl)oc23)[C@H](O)C1 [alvocidib]
# Method in brief: as §1
# Tubastatin A = compound: CN1CCc2c(c3ccccc3n2Cc2ccc(C(=O)NO)cc2)C1 [Tubastatin A]
# Method in brief: as §1
# defactinib = compound: CNC(=O)c1ccc(Nc2ncc(C(F)(F)F)c(NCc3nccnc3N(C)S(C)(=O)=O)n2)cc1 [defactinib]
# Method in brief: as §1
# [6] = compound: CNc1nc(-c2ccc3c(N)n[nH]c3c2)cc(N2C[C@@H](C(=O)NC3CCCCC3)CC[C@H]2C)n1
# Method in brief: as §1
# [7] = compound: COC(=O)[C@H](CCSC)NC(=O)C1=C(C=C(C=C1)NC[C@H](CS)N)C2=CC=CC=C2
# Method in brief: as §1
# [8] = compound: CC[C@@H]1C(=O)N(C)c2cnc(Nc3ccc(C(=O)NC4CCN(C)CC4)cc3OC)nc2N1C1CCCC1
# Method in brief: as §1
# [9] = compound: CCn1c(C(=O)N(C2CC2)C2CC2)cc2c3c(ncn3C)c(Nc3cc(C)n(C)n3)nc21
# Method in brief: as §1
# [10] = compound: CNC(=O)C1=CC=CC=C1NC2=NC(=NC=C2Cl)NC3=C(C=C(C=C3)N4CCOCC4)OC
# Method in brief: as §1
# rucaparib = compound: CNCc1ccc(-c2[nH]c3cc(F)cc4c3c2CCNC4=O)cc1 [rucaparib]
# Method in brief: as §1
# encorafenib = compound: COC(=O)N[C@@H](C)CNc1nccc(-c2cn(C(C)C)nc2-c2cc(Cl)cc(NS(C)(=O)=O)c2F)n1 [encorafenib]
# Method in brief: as §1
# volasertib = compound: CC[C@@H]1C(=O)N(C)c2cnc(Nc3ccc(C(=O)N[C@H]4CC[C@H](N5CCN(CC6CC6)CC5)CC4)cc3OC)nc2N1C(C)C [volasertib]
# Method in brief: as §1
# rosiglitazone = compound: CN(CCOC1=CC=C(C=C1)C[C@H]2C(=O)NC(=O)S2)C3=CC=CC=N3 (racemic) [rosiglitazone]
# Method in brief: as §1
target,measurement,setting,value
NOP14 (UniProt P78316),log2 fold change,[1],inactive: 0.016
same,log2 fold change,epoxomicin,inactive: -0.024
same,log2 fold change,[2],inactive: 0.069
same,log2 fold change,[3],inactive: -0.015
same,log2 fold change,[4],inactive: 0.208
same,log2 fold change,[5],inactive: 0.067
same,log2 fold change,saracatinib,inactive: -0.101
same,log2 fold change,sotrastaurin,inactive: 0
same,log2 fold change,alvocidib,inactive: 0.021
same,log2 fold change,Tubastatin A,inactive: 0.009
same,log2 fold change,defactinib,inactive: 0.016
same,log2 fold change,[6],inactive: 0.046
same,log2 fold change,[7],inactive: 0.067
NOSTRIN isoform 4 (UniProt Q8IVI9),log2 fold change,[8],inactive: 0.094
same,log2 fold change,[1],inactive: 0.276
same,log2 fold change,[9],inactive: -0.011
same,log2 fold change,sotrastaurin,inactive: -0.291
same,log2 fold change,[10],inactive: 0.114
same,log2 fold change,rucaparib,inactive: 0.209
same,log2 fold change,encorafenib,inactive: 0.278
NFE2L1 (UniProt Q14494),log2 fold change,volasertib,inactive: -0.07
same,log2 fold change,epoxomicin,inactive: 0.205
same,log2 fold change,[9],inactive: 0.138
same,log2 fold change,[2],inactive: 0.117
same,log2 fold change,[3],inactive: -0.062
same,log2 fold change,[5],inactive: -0.193
same,log2 fold change,alvocidib,inactive: 0.017
same,log2 fold change,Tubastatin A,inactive: 0.393
same,log2 fold change,[10],inactive: -0.154
same,log2 fold change,defactinib,inactive: -0.088
same,log2 fold change,[7],inactive: 0.094
NKIRAS2 (UniProt Q9NYR9),log2 fold change,[1],inactive: -0.158
same,log2 fold change,epoxomicin,inactive: -0.07
same,log2 fold change,[9],inactive: -0.038
same,log2 fold change,sotrastaurin,inactive: 0.013
same,log2 fold change,Tubastatin A,inactive: 0.11
same,log2 fold change,[10],inactive: 0
NLRX1 (UniProt Q86UT6),log2 fold change,volasertib,inactive: -0.289
same,log2 fold change,[1],inactive: -0.185
same,log2 fold change,epoxomicin,inactive: -0.019
same,log2 fold change,[9],inactive: -0.201
same,log2 fold change,sotrastaurin,inactive: -0.196
same,log2 fold change,Tubastatin A,inactive: 0.076
same,log2 fold change,[10],inactive: 0.16
NOS1AP (UniProt O75052),log2 fold change,[8],inactive: 0.092
same,log2 fold change,volasertib,inactive: 0.035
same,log2 fold change,epoxomicin,inactive: 0.056
same,log2 fold change,[3],inactive: 0.225
same,log2 fold change,Tubastatin A,inactive: -0.112
same,log2 fold change,[10],inactive: -0.089
same,log2 fold change,defactinib,inactive: 0.193
same,log2 fold change,rucaparib,inactive: -0.403
same,log2 fold change,encorafenib,inactive: 0.092
same,log2 fold change,[7],inactive: -0.074
NSD1 (UniProt Q96L73),log2 fold change,[8],inactive: 0.056
same,log2 fold change,[1],inactive: 0.013
same,log2 fold change,[9],inactive: 0.071
same,log2 fold change,[2],inactive: -0.155
same,log2 fold change,rosiglitazone,inactive: -0.013
same,log2 fold change,[4],inactive: 0.021
same,log2 fold change,[5],inactive: -0.205
same,log2 fold change,saracatinib,inactive: 0.082
same,log2 fold change,sotrastaurin,inactive: -0.054
same,log2 fold change,[10],inactive: 0.008
same,log2 fold change,rucaparib,inactive: -0.069
same,log2 fold change,[6],inactive: 0.06
same,log2 fold change,encorafenib,inactive: 0.044
NRROS (UniProt Q86YC3),log2 fold change,volasertib,inactive: -0.003
same,log2 fold change,[1],inactive: 0.031
same,log2 fold change,[2],inactive: 0.045
same,log2 fold change,[5],inactive: 0.063
NSA2 (UniProt O95478),log2 fold change,epoxomicin,inactive: -0.261
same,log2 fold change,[2],inactive: 0.038
same,log2 fold change,rosiglitazone,inactive: 0.161
same,log2 fold change,[5],inactive: 0.329
NOP10 (UniProt Q9NPE3),log2 fold change,volasertib,inactive: 0.056
same,log2 fold change,[1],inactive: -0.051
same,log2 fold change,[9],inactive: -0.061
same,log2 fold change,rosiglitazone,inactive: -0.107
same,log2 fold change,[4],inactive: 0.136
same,log2 fold change,saracatinib,inactive: -0.137
same,log2 fold change,alvocidib,inactive: 0.083
same,log2 fold change,[10],inactive: -0.103
same,log2 fold change,[6],inactive: -0.189
NOC3L (UniProt Q8WTT2),log2 fold change,[1],inactive: -0.09
same,log2 fold change,epoxomicin,inactive: -0.264
same,log2 fold change,[2],inactive: 0.058
same,log2 fold change,rosiglitazone,inactive: 0.114
same,log2 fold change,[5],inactive: -0.252
NFKBIA (UniProt P25963),log2 fold change,[8],inactive: -0.129
same,log2 fold change,[9],inactive: -0.101
same,log2 fold change,[2],inactive: 0.059
same,log2 fold change,[3],inactive: 0.183
same,log2 fold change,[4],inactive: -0.107
same,log2 fold change,[5],inactive: -0.194
same,log2 fold change,saracatinib,inactive: 0.175
same,log2 fold change,sotrastaurin,inactive: -0.34
same,log2 fold change,[10],inactive: -0.082
same,log2 fold change,defactinib,inactive: -0.167
same,log2 fold change,rucaparib,inactive: -0.015
same,log2 fold change,[6],inactive: 0.13
same,log2 fold change,encorafenib,inactive: 0.122
same,log2 fold change,[7],inactive: -0.009
NSD3 (UniProt Q9BZ95),log2 fold change,epoxomicin,inactive: -0.011
same,log2 fold change,[9],inactive: -0.098
same,log2 fold change,[2],inactive: 0.244
same,log2 fold change,[3],inactive: 0.076
same,log2 fold change,rosiglitazone,inactive: 0.34
same,log2 fold change,[4],inactive: -0.026
same,log2 fold change,[5],inactive: 0.081
same,log2 fold change,saracatinib,inactive: 0.139
same,log2 fold change,sotrastaurin,inactive: -0.087
same,log2 fold change,alvocidib,inactive: 0.011
same,log2 fold change,Tubastatin A,inactive: 0.07
same,log2 fold change,[10],inactive: -0.034
same,log2 fold change,defactinib,inactive: 0.033
same,log2 fold change,[6],inactive: -0.174
same,log2 fold change,[7],inactive: 0.037
NGDN (UniProt Q8NEJ9),log2 fold change,sotrastaurin,inactive: 0.142
same,log2 fold change,alvocidib,inactive: 0.052
same,log2 fold change,Tubastatin A,inactive: 0.033
NELFCD (UniProt Q8IXH7),log2 fold change,volasertib,active: -0.562
same,log2 fold change,[1],inactive: 0.244
same,log2 fold change,epoxomicin,inactive: -0.052
same,log2 fold change,[2],inactive: -0.113
same,log2 fold change,[3],inactive: 0.298
same,log2 fold change,[4],inactive: -0.05
same,log2 fold change,[5],inactive: 0.226
same,log2 fold change,saracatinib,inactive: -0.114
same,log2 fold change,[10],inactive: 0.024
same,log2 fold change,defactinib,inactive: -0.228
same,log2 fold change,[6],inactive: -0.002
same,log2 fold change,[7],inactive: -0.085

# Not a retest: an excerpt of the list.
target,measurement,setting,value
NSD1 (UniProt Q96L73),log2 fold change,[4],inactive: 0.021
same,log2 fold change,[5],inactive: -0.205
same,log2 fold change,saracatinib,inactive: 0.082
same,log2 fold change,sotrastaurin,inactive: -0.054
same,log2 fold change,[10],inactive: 0.008

# An excerpt of these results, as tab-separated lines:
target	measurement	setting	value
NRROS (UniProt Q86YC3)	log2 fold change	[2]	inactive: 0.045
same	log2 fold change	[5]	inactive: 0.063
